Test results reported in paper PMC4081092.
Results are given in words; binding and its absence hold for the method and conditions named. For some assays here: In cells and extracts the contact can be indirect. Some results given as binding are weak or reduced against the parent protein; the word gives no strength. Sequences can lack the tags named with a protein.

T1: U2AF35-GFP, Q01081
T1 chain: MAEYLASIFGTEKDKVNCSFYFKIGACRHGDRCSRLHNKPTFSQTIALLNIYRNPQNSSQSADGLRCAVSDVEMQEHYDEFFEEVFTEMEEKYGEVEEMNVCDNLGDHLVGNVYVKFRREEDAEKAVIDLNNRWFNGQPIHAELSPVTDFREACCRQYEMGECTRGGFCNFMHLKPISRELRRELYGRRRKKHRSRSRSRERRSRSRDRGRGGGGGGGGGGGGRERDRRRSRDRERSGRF

B1: HA-tagged U2AF35, Q01081 1-240 (protein)
chain: T1 chain
B2: HA-tagged U2AF65, P26368 1-475 (protein)
chain: MSDFDEFERQLNENKQERDKENRHRKRSHSRSRSRDRKRRSRSRDRRNRDQRSASRDRRRRSKPLTRGAKEEHGGLIRSPRHEKKKKVRKYWDVPPPGFEHITPMQYKAMQAAGQIPATALLPTMTPDGLAVTPTPVPVVGSQMTRQARRLYVGNIPFGITEEAMMDFFNAQMRLGGLTQAPGNPVLAVQINQDKNFAFLEFRSVDETTQAMAFDGIIFQGQSLKIRRPHDYQPLPGMSENPSVYVPGVVSTVVPDSAHKLFIGGLPNYLNDDQVKELLTSFGPLKAFNLVKDSATGLSKGYAFCEYVDINVTDQAIAGLNGMQLGDKKLLVQRASVGAKNATLVSPPSTINQTPVTLQVPGLMSSQVQMGGHPTEVLCLMNMVLPEELLDDEEYEEIVEDVRDECSKYGLVKSIEIPRPVDGVEVPGCGKIFVEFTSVFDCQKAMQGLTGRKFANRVVVTKYCDPDSYHRRDFW

Legend:
Settings in all cases: remark: other sources report otherwise
[1] = target: Full-length U2AF65 coupled to GFP, P26368; assay: co-IP; GFP-tagged bait and HA-tagged or untagged partners co-expressed in HEK 293T cells, lysate precipitated with the GFP-nanotrap, immunoblot
[2] = target: Full-length U2AF65 coupled to GFP, P26368; assay: native gel or EMSA; lysates of HEK 293T cells co-expressing the proteins on a non-denaturing gel (7% acrylamide, 80 mM Tris/HCl pH 7.3), blotted and co-stained with two antibodies; co-migration in one band
[3] = target: T1, U2AF35-GFP, Q01081; assay: co-IP; GFP-tagged bait and HA-tagged or untagged partners co-expressed in HEK 293T cells, lysate precipitated with the GFP-nanotrap, immunoblot
[4] = target: T1, U2AF35-GFP, Q01081; assay: native gel or EMSA; lysates of HEK 293T cells co-expressing the proteins on a non-denaturing gel (7% acrylamide, 80 mM Tris/HCl pH 7.3), blotted and co-stained with two antibodies; co-migration in one band
[5] = target: T1, U2AF35-GFP, Q01081; assay: co-IP; as a3, with RNase A (1 mg/ml, 30 min) added to the lysis buffer before the GFP pulldown

Row | Binder | binding [1] | binding [2] | binding [3] | binding [4] | binding [5]
1 | B1 | binds | binds | – | – | –
2 | B2 | – | – | binds | binds | binds
